Measured values taken from article PMC11154705, “Spatio-temporal control of asymmetric septum positioning during sporulation in Bacillus subtilis” (The Journal of Biological Chemistry, 2024).
No constants are given. Whether binding was seen depends on the method and setting. Some binding calls cover weakened binding; strength is not graded here.

Biological target: T1, DivIVA (B. subtilis) (UniProt P71021)
T1 sequence: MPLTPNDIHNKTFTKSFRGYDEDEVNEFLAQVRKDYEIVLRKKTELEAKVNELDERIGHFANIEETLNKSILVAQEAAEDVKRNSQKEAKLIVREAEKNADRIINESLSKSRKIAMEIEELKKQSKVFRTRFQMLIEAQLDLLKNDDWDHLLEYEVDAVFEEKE
Experiment: two-hybrid; bacterial two-hybrid (BACTH): fusions to adenylate cyclase fragments T18 and T25 cotransformed into E. coli BTH101 (delta cya); spotted on LB plates with X-Gal and 0.5 mM IPTG, 24 to 48 h at 30 °C; beta-galactosidase activity in Miller units

B1: SpoIIE (protein, UniProt P37475 1-827)
chain: MEKAERRVNGPMAGQALEKLQSFFNRGTKLVTHHLHSLFFYKGFIYVVIGFLLGRAFILSEVLPFALPFFGAMLLIRRDKAFYAVLAVLAGALTISPKHSLLILAALLAFFVFSKVAAFITDDRVKALPIVVFFSMAAARAGFVYAQNGVFTTYDYVMAIVEAGLSFILTLIFLQSLPIFTVKKVKQSLKIEEIICFMILIASVLTGLAGLSYQGMQAEHILARYVVLSFSFIGGASIGCTVGVVTGLILGLANIGNLYQMSLLAFSGLLGGLLKEGKKAGAAIGLIVGSLLISLYGEGSAGLMTTLYESLIAVCLFLLTPQSITRKVARYIPGTVEHLQEQQQYARKIRDVTAQKVDQFSNVFHALSESFATFYQASDEQTDDSEVDLFLSKITEHSCQTCYKKNRCWVQNFDKTYDLMKQVMLETEEKEYASNRRLKKEFQQYCSKSKQVEELIEDELAHHHAHLTLKKKVQDSRRLVAEQLLGVSEVMADFSREIKREREQHFLQEEQIIEALQHFGIEIQHVEIYSLEQGNIDIEMTIPFSGHGESEKIIAPMLSDILEEQILVKAEQHSPHPNGYSHVAFGSTKSYRVSTGAAHAAKGGGLVSGDSYSMMELGARKYAAAISDGMGNGARAHFESNETIKLLEKILESGIDEKIAIKTINSILSLRTTDEIYSTLDLSIIDLQDASCKFLKVGSTPSFIKRGDQVMKVQASNLPIGIINEFDVEVVSEQLKAGDLLIMMSDGIFEGPKHVENHDLWMKRKMKGLKTNDPQEIADLLMEEVIRTRSGQIEDDMTVVVVRIDHNTPKWASIPVPAIFQNKQEIS
- binding: binds
